For at least one compound, name, drawing or mass did not settle the structure.
Assay: minimum pentetrazole shock test (min PS), protection against clonic cramp;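 note: albino NMRI mice, oral dosing, clonic seizures provoked 60 min later by subcutaneous pentetrazole 70 mg/kg, ED50 is the dose protecting half of animals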
Type: in vivo, mice

Structure (SMILES): O=C1NC(=O)C(c2ccccc2)(c2ccccc2)N1 [Diphenylhydantoin, reference compound]
- effect on clonic cramp (comparison with antiepileptics of the hydantoin type): no effect on clonic cramp
- Anticonvulsive activity Min PS ED50 (mice, 70 mg/kg pentetrazole s.c., 60 minutes after p.o. administration, protection in 50% of the animals): ineffectual
